# The other results are listed elsewhere or left out. The data scatter; read single values as rough.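 Tm was set to 64 °C where no melting was found, and many curves are irregular.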
# By UniProt entry, the sequences of proteins in these tests, tags left out. Where a name states a change or a piece, a line headed by the entry shows the natural chain unless it says otherwise.
# UniProt P63241: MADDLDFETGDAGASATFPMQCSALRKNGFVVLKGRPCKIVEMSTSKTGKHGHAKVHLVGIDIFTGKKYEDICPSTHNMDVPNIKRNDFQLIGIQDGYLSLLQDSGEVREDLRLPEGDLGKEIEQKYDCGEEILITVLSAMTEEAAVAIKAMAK
# UniProt P63104: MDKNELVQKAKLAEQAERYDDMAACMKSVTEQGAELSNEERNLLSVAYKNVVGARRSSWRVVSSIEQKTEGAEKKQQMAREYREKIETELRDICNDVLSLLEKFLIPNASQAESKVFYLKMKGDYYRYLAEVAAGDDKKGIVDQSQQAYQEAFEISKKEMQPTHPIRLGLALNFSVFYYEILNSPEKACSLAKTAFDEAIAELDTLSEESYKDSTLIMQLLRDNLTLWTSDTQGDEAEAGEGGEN
# UniProt P57081: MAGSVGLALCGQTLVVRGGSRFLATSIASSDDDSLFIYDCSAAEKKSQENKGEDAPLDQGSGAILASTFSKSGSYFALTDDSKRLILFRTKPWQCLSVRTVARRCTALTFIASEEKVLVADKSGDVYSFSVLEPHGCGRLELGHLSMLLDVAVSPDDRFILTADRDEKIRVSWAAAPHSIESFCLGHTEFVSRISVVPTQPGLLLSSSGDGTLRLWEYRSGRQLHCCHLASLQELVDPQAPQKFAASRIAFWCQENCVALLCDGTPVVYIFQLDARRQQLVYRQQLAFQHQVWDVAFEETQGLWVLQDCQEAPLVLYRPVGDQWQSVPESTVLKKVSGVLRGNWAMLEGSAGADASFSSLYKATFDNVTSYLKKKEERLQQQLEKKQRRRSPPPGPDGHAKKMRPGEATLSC
# UniProt P55199: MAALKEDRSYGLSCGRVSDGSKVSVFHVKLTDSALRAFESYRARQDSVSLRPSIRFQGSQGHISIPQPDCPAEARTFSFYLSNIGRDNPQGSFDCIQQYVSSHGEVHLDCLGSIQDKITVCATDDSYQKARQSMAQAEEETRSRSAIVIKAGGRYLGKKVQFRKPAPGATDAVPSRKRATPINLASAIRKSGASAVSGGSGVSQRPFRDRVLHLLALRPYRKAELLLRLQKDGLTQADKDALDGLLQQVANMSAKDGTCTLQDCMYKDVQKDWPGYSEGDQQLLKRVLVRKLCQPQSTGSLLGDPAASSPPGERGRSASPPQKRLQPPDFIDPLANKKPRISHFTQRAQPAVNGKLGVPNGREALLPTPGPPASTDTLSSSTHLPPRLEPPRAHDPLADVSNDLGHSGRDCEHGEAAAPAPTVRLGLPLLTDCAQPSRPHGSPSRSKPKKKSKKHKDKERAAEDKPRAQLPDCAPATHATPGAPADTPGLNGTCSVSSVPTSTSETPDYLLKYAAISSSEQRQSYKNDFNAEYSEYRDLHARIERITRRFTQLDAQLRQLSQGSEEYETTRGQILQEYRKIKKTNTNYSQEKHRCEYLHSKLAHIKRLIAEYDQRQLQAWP
# UniProt P62879, whole entry: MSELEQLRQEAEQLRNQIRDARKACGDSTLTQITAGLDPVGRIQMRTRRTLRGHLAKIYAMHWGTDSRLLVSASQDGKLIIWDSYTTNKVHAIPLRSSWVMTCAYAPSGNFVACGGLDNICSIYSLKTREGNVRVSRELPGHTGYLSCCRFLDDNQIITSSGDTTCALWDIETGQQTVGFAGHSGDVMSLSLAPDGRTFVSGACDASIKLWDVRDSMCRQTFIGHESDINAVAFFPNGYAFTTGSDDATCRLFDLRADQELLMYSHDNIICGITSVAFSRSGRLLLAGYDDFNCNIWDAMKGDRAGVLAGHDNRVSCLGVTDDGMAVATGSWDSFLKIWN
# UniProt P68400, whole entry, looked up: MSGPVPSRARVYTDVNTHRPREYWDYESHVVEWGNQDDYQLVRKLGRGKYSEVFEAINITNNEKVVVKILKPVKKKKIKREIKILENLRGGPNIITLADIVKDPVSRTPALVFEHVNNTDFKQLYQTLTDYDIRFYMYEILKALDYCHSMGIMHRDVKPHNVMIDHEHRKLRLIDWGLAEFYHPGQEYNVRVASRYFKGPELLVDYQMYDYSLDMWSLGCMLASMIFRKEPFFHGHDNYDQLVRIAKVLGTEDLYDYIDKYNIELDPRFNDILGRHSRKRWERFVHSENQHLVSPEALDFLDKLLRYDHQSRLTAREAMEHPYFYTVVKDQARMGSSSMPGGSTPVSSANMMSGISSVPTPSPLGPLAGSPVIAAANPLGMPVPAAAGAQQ
# UniProt P54760: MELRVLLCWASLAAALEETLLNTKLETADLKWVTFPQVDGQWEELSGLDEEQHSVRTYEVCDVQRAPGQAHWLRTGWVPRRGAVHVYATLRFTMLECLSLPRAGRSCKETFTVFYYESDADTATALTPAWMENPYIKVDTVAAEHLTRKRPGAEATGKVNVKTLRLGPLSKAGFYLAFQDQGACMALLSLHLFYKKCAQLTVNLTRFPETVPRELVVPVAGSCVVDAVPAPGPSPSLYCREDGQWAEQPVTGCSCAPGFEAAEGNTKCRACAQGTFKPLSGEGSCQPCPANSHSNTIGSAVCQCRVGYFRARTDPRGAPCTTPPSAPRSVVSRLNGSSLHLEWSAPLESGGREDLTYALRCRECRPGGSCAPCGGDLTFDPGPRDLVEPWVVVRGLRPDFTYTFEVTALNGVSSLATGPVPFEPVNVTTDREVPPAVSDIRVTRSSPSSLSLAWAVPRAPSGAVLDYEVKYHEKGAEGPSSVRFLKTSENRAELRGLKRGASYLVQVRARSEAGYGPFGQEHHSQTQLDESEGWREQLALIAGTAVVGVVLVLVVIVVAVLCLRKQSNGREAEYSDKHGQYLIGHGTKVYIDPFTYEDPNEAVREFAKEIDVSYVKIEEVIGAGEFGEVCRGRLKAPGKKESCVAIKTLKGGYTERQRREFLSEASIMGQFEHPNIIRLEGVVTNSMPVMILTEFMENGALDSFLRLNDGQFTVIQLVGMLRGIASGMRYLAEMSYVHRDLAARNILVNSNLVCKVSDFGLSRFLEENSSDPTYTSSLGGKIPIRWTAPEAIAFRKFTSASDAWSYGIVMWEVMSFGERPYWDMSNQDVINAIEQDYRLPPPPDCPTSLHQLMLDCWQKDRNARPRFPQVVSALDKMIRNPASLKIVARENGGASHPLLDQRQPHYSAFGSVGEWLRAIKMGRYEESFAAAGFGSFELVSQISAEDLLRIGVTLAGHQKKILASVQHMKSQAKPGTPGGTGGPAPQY
# UniProt P62380: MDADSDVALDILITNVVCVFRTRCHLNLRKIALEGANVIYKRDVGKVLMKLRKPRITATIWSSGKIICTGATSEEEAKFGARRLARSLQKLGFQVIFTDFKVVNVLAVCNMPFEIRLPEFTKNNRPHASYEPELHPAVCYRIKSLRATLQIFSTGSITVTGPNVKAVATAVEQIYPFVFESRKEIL
# UniProt P62140, whole entry: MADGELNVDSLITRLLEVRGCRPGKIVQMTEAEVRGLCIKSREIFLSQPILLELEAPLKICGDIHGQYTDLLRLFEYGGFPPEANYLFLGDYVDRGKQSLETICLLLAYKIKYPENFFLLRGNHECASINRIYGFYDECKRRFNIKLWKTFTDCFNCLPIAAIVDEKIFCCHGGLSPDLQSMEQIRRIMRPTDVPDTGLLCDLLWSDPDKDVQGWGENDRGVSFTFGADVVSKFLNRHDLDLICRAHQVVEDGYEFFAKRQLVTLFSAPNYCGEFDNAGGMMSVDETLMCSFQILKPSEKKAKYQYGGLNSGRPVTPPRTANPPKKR
# UniProt P63208, whole entry: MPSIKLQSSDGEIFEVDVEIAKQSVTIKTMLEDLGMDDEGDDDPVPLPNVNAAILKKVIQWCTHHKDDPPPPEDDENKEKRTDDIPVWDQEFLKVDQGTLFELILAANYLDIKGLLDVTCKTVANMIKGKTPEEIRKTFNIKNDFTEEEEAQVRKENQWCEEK
# UniProt P54687: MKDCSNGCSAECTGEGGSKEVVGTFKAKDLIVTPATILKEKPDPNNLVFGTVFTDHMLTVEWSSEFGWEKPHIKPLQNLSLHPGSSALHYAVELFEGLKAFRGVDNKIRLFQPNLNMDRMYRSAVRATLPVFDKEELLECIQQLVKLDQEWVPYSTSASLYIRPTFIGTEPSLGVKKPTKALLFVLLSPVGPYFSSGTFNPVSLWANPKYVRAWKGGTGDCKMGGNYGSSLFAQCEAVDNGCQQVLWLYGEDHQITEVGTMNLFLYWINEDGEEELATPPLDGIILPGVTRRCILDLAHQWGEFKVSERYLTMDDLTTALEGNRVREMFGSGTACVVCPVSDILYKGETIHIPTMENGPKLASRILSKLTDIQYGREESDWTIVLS
# UniProt P53609, whole entry, looked up: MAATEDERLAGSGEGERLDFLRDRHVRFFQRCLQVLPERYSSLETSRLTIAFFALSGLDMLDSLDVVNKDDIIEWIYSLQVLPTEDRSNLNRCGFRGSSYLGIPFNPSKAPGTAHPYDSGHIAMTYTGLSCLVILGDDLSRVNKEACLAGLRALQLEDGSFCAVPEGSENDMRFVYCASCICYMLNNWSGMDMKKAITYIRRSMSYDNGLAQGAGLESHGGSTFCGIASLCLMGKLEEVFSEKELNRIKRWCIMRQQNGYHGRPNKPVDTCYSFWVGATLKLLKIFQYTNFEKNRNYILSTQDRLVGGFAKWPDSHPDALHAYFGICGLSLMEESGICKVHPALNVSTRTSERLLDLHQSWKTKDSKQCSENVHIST
# UniProt P61020: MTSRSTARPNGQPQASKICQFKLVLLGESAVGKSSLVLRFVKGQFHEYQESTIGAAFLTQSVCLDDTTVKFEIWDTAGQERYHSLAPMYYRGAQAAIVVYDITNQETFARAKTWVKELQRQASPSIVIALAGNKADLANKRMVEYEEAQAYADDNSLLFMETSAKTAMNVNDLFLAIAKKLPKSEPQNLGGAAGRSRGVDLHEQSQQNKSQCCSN
# UniProt P52848: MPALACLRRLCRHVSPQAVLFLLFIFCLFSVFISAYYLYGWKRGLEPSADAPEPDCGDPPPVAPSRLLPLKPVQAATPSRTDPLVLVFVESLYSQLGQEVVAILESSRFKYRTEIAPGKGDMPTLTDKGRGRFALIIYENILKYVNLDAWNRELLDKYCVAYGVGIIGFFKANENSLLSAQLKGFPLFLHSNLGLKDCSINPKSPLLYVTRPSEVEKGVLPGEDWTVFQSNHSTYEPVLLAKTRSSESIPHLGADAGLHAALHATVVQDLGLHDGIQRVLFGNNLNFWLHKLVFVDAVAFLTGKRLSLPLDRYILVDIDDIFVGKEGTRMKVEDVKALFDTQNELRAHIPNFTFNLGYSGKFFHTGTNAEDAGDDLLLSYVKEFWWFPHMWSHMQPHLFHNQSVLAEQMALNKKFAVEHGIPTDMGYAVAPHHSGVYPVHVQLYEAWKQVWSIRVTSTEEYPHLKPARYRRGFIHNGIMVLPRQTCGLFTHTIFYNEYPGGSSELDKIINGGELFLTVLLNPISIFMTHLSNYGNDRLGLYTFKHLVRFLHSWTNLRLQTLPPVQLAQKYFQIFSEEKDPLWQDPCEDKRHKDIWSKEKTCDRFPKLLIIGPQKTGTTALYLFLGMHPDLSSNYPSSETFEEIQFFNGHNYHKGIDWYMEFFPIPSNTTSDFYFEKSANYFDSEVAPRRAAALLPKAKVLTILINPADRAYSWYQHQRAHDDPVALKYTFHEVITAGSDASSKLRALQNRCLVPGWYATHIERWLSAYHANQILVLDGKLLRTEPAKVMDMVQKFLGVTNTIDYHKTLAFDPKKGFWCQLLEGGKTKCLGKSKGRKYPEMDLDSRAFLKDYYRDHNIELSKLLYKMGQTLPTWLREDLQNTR
# UniProt P52565: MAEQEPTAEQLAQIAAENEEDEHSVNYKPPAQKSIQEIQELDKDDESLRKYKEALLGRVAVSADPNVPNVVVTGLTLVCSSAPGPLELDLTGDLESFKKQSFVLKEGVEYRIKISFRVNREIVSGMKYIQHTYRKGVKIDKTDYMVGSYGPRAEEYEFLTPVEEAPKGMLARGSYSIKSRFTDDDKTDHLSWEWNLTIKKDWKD
# UniProt P57768: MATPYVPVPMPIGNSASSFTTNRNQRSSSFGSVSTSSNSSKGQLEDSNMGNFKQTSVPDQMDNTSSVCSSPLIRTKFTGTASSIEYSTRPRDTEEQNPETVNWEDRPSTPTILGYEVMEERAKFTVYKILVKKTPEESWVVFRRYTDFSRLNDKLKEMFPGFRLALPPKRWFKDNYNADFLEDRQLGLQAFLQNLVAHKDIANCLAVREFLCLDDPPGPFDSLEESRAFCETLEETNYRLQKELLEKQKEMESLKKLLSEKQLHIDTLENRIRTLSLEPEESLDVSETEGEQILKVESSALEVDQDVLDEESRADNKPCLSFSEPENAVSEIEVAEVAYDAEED
# UniProt P61758, whole entry: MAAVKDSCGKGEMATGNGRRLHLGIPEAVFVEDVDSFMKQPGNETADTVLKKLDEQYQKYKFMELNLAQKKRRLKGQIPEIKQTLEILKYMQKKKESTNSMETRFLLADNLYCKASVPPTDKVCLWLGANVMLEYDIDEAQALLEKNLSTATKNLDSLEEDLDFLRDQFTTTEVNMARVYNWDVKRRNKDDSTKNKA
# UniProt P63172, whole entry: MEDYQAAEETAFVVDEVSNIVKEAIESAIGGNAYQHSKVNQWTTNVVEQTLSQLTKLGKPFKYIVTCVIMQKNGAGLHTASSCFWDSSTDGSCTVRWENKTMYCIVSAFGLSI
# Compound: CCc1cnccc1C(=O)Nc1cc2c(cc1F)NC(=O)CC2
# Test: melting temperature shift (DMSO Tm minus MBE1-treated Tm) in cellular thermal proteome profiling; higher = less thermal stabilization by MBE1 (negative = stabilized by MBE1)
# Conditions: A375
Target,melting temperature shift (MBE1 concentration: 100 nM) [°C],melting temperature shift (MBE1 concentration: 1 uM) [°C]
NUBP1 (UniProt P53384),0.369,0.563
AP1S1 (UniProt P61966),0.837,0.116
UniProt P55201,–,-0.602
UniProt P56645,-0.228,0.55
UniProt P55061,0.0805,-0.329
PCBD1 (UniProt P61457),–,-2.79
MAP2K6 (UniProt P52564),-0.281,0.409
UniProt P60709,-0.983,1.61
KIF11 (UniProt P52732),-0.927,-0.598
RAB2A (UniProt P61019),-1.29,-1.36
UniProt P56962,0.562,–
SEC13 (UniProt P55735),0.855,0.147
EIF6 (UniProt P56537),-1.12,-0.647
UBE2K (UniProt P61086),-0.282,-0.617
GRB2 (UniProt P62993),0.322,0.114
UBE2E1 (UniProt P51965),-1.14,8.94
HIST1H4A (UniProt P62805),1.97,2.28
CCNH (UniProt P51946),0.147,0.287
UniProt P68133,-0.27,20.3
SLC5A3 (UniProt P53794),–,-1.51
YPEL5 (UniProt P62699),0.641,0.0977
RPS6 (UniProt P62753),-0.989,-0.44
EIF5A (UniProt P63241),-0.22,-0.635
BID (UniProt P55957),-1.69,-2.51

Target,melting temperature shift (MBE1 concentration: 100 nM) [°C],melting temperature shift (MBE1 concentration: 1 uM) [°C]
SNRPD3 (UniProt P62318),-2.14,1.17
YWHAZ (UniProt P63104),-1.32,-0.898
MTPN (UniProt P58546),-0.506,-0.11
RPS11 (UniProt P62280),0.134,15
UBE2B (UniProt P63146),-0.165,1.12
EIF3E (UniProt P60228),-0.386,-0.132
UniProt P55290,-3.46,-2.94
KPNA1 (UniProt P52294),-1.36,-0.773
LAMB2 (UniProt P55268),-0.805,0.318
WDR4 (UniProt P57081),-1.22,1.27
GMFB (UniProt P60983),-2.63,–
UniProt P55199,-0.243,-0.455
SESN2 (UniProt P58004),–,-0.428
YARS (UniProt P54577),-0.245,0.0988
ACTR2 (UniProt P61160),-0.727,-0.275
RPL23 (UniProt P62829),0.311,0.782
GNB2 (UniProt P62879),-0.959,0.637
PPIA (UniProt P62937),-0.677,-0.637
SUB1 (UniProt P53999),-0.379,-0.214
RPS15A (UniProt P62244),-0.763,0.22
MVD (UniProt P53602),-0.255,0.0671
EEF1A1 (UniProt P68104),-0.0939,0.282
ADK (UniProt P55263),-0.953,-0.372
UniProt P61803,-1.56,0.458

Target,melting temperature shift (MBE1 concentration: 100 nM) [°C],melting temperature shift (MBE1 concentration: 1 uM) [°C]
ARPC4 (UniProt P59998),-2.25,-3.26
UniProt P68400,-0.763,0.525
UniProt P61018,-0.235,-1.09
UniProt P62304,0.57,0.773
MFAP1 (UniProt P55081),0,-4.19
CTSC (UniProt P53634),-0.684,1.21
OXCT1 (UniProt P55809),0.0268,0.0469
EPHB4 (UniProt P54760),-1.6,-1.35
UniProt P62380,0.788,-0.0122
IST1 (UniProt P53990),0.391,-0.879
UBE2N (UniProt P61088),0.302,-0.342
PPP1CB (UniProt P62140),-1.66,-0.105
GSDMD (UniProt P57764),-1.49,-1.66
VAMP7 (UniProt P51809),-0.389,-0.273
RAP2B (UniProt P61225),-1.58,-1.58
MNAT1 (UniProt P51948),-0.933,0.684
METAP1 (UniProt P53582),-1.66,-0.382
SKP1 (UniProt P63208),-1.93,0.0472
HSPA2 (UniProt P54652),-0.0201,-0.248
UniProt P54687,-1.19,-0.472
PGGT1B (UniProt P53609),-0.496,0.134
UBE2G2 (UniProt P60604),1.39,0.696
YWHAG (UniProt P61981),-1.42,-1.4
PLK1 (UniProt P53350),0.147,0.275

Target,melting temperature shift (MBE1 concentration: 100 nM) [°C],melting temperature shift (MBE1 concentration: 1 uM) [°C]
NAA20 (UniProt P61599),-0.64,0.653
KPNA2 (UniProt P52292),-0.448,-0.519
RPS25 (UniProt P62851),-1.57,-1.23
ATXN3 (UniProt P54252),-0.593,-1.24
HNRNPM (UniProt P52272),-0.231,-0.397
UniProt P57682,-0.912,-6.08
UniProt P54289,-1.04,0.288
RAB5B (UniProt P61020),0.157,0.374
HDAC4 (UniProt P56524),-0.932,-1.52
SEC24C (UniProt P53992),-1.01,-0.903
PGD (UniProt P52209),-0.201,0.0805
UniProt P52848,-1.48,0.446
UBE2M (UniProt P61081),-0.171,-1.06
BCAR1 (UniProt P56945),-0.781,-0.506
RRP1 (UniProt P56182),-0.762,-1.28
ARHGDIA (UniProt P52565),-0.168,-0.259
SEC11A (UniProt P67812),-0.315,-0.241
UniProt P52895,-0.904,0.0961
ACTR3 (UniProt P61158),-0.739,-0.372
RAC1 (UniProt P63000),0.122,0.61
SNX16 (UniProt P57768),0.8,3.04
RPL23A (UniProt P62750),-0.971,-0.0183
CASP7 (UniProt P55210),-1.95,0.959
SPCS3 (UniProt P61009),-0.543,0.154

# An excerpt of these results, with tabs:
Target	melting temperature shift (MBE1 concentration: 100 nM) [°C]	melting temperature shift (MBE1 concentration: 1 uM) [°C]
RPS25 (UniProt P62851)	-1.57	-1.23
ATXN3 (UniProt P54252)	-0.593	-1.24
SEC24C (UniProt P53992)	-1.01	-0.903
PGD (UniProt P52209)	-0.201	0.0805
RAC1 (UniProt P63000)	0.122	0.61

# Going on with the list:

Target,melting temperature shift (MBE1 concentration: 100 nM) [°C],melting temperature shift (MBE1 concentration: 1 uM) [°C]
COPA (UniProt P53621),-0.116,0.128
SUMO1 (UniProt P63165),0.0518,0.376
PSMD4 (UniProt P55036),-1.37,0.55
NPEPPS (UniProt P55786),-1.06,0.055
SMTN (UniProt P53814),-0.9,-0.487
NUP98 (UniProt P52948),0.928,0.592
UniProt P53677,0.397,-0.415
UniProt P62760,-1.09,-0.428
NUP107 (UniProt P57740),1.03,0.556
UBE2G1 (UniProt P62253),-0.818,-0.221
UniProt P54284,-0.322,0.727
RPS7 (UniProt P62081),-1.9,-0.51
VBP1 (UniProt P61758),-1.4,-1.38
UniProt P63172,0.0427,1.42
COPZ1 (UniProt P61923),-1.6,0.228
RARS (UniProt P54136),-0.635,-0.583
UniProt P53804,-0.226,-0.623
SNRPD2 (UniProt P62316),-1.67,-0.996
TPI1 (UniProt P60174),-1.15,-0.302
UniProt P54803,-2.48,-4.24
UniProt P52815,-2.4,-3.82
RPS20 (UniProt P60866),-0.861,-0.623
RPS26 (UniProt P62854),0.0591,-0.316
YWHAE (UniProt P62258),-0.537,-0.568

# From the supplement of paper PMC12595434, “Development of retinoid nuclear receptor pathway antagonists through targeting aldehyde dehydrogenase 1A3” (iScience, 2025)
